Laboratory results reported in PubChem BioAssay AID248 (DTP/NCI, 2004).
The list is a part of this screen's results and no random one: it is rich in T/C values a quarter to a half above the control, in often repeated tests (any T/C) and in doses without a T/C. Other doses and runs of a compound stand elsewhere. T/C: endpoint of the treated group in % of that of the vehicle group. Some entries give survivors of the animals treated and no T/C: the source files T/C as zero there, which appears to mark a toxic dose or a test without result, not a measured value. Some doses without a T/C left all or most animals alive at the check, yet need not have been tolerated: the source hardly ever lists a survival T/C far under the control, and the zero likely stands for such cases as well. Survivors were counted at the toxicity check, usually on the fifth day, unless a day is given; later deaths do not show. Schedules are NCI's codes, read here as Q, the interval in days (D) or hours (H), X, the number of doses. Brackets with × stand for listed records that agree. Some entries hold several experiments; the results are listed from low to high. Some schedule codes hold Z or #, which are not explained here. For survival time, the PubChem record calls one and a half times the control and up active, and a quarter to a half above the control has no call in these data; cut-offs in other NCI protocols can differ. Some T/C values carry the count of animals alive at the toxicity check (mostly the fifth day); without a count, all were alive then.

Tested on: L1210 leukemia ip in BDF1 mice, survival T/C
Test: NCI In Vivo Anticancer Drug Screen. Data for tumor model L1210 Leukemia (intraperitoneal) in B6D2F1 (BDF1) mice
Details: T/C endpoint: mean survival time, higher T/C = longer survival
[1] = dose: 50.0 mg/kg/injection, schedule: Q01DX009 (ip), vehicle: saline with Tween-80
[2] = dose: 200.0 mg/kg/injection, schedule: Q01DX001 (ip), vehicle: carboxymethylcellulose (CMC)
[3] = dose: 400.0 mg/kg/injection, schedule: Q01DX001 (ip), vehicle: carboxymethylcellulose (CMC)
[4] = dose: 200.0 mg/kg/injection, schedule: Q04DX003 (ip), vehicle: saline with Tween-80
[5] = dose: 400.0 mg/kg/injection, schedule: Q04DX003 (ip), vehicle: saline with Tween-80
[6] = dose: 400.0 mg/kg/injection, schedule: Q01DX009 (ip), vehicle: Klucel (hydroxypropylcellulose) (HPC)
[7] = dose: 100.0 mg/kg/injection, schedule: Q04DX003 (ip), vehicle: saline with Tween-80
[8] = dose: 100.0 mg/kg/injection, schedule: Q01DX009 (ip), vehicle: saline with Tween-80
[9] = dose: 200.0 mg/kg/injection, schedule: Q01DX009 (ip), vehicle: saline with Tween-80

In the case of `CC1(C)NC(=S)NC1=S`, the survivor count (dose: 400.0 mg/kg/injection, schedule: Q01DX009 (ip), vehicle: alcohol) was 3 of 6.

In the case of `O=C(C=C(C(F)(F)F)C(F)(F)F)c1ccco1`, the survivor count [1] was 1 of 6.

In the case of `Oc1ccc(C2CCCCCC2)cc1`, the survivor count (dose: 50.0 mg/kg/injection, schedule: Q01DX001 (ip), vehicle: carboxymethylcellulose (CMC)) was 0 of 4, the survivor count (dose: 100.0 mg/kg/injection, schedule: Q01DX001 (ip), vehicle: carboxymethylcellulose (CMC)) was 0 of 4 and the survivor count [2] was 0 of 4. For the same compound, the survivor count [3] was 0 of 4.

In the case of `O=C1CN=C(c2ccccn2)c2cc(Cl)ccc2N1`, the survivor count (dose: 600.0 mg/kg/injection, schedule: Q01DX009 (ip), vehicle: saline) was 0 of 10.

`CC1(C)N=C(N)N=C(N)N1c1ccc(OCCNS(=O)(=O)c2ccc(S(=O)(=O)F)cc2)c(Cl)c1` was tested, and the survivor count [4] was 5 of 6 and the survivor count [5] was 0 of 6.

In the case of `C=NN=C(NN=C)NN=C`, the survivor count (dose: 60.0 mg/kg/injection, schedule: Q01DX Z (oral), vehicle: methylcellulose (MC)) was 3 of 5, the survivor count (dose: 240.0 mg/kg/injection, schedule: Q01DX Z (ip), vehicle: methylcellulose (MC)) was 0 of 6 and the survivor count (dose: 240.0 mg/kg/injection, schedule: Q01DX Z (oral), vehicle: methylcellulose (MC)) was 3 of 6. The survivor count (dose: 360.0 mg/kg/injection, schedule: Q01DX Z (ip), vehicle: methylcellulose (MC)) was 0 of 6, the survivor count (dose: 480.0 mg/kg/injection, schedule: Q01DX Z (ip), vehicle: methylcellulose (MC)) was 0 of 6 and the survivor count (dose: 760.0 mg/kg/injection, schedule: Q01DX Z (oral), vehicle: methylcellulose (MC)) was 0 of 6. The survivor count (dose: 960.0 mg/kg/injection, schedule: Q01DX Z (oral), vehicle: methylcellulose (MC)) was 0 of 6.

In the case of `CCCCCCCCCCCCCCCCS(=O)CCCCCCCCCCCCCCCC`, the survivor count (dose: 25.0 mg/kg/injection, schedule: Q01DX009 (ip), vehicle: Klucel (hydroxypropylcellulose) (HPC)) was 3 of 3.

For `O=C1C(Cl)=C(N=Nc2c(Cl)c(O)c3ccccc3c2O)C(=O)c2ccccc21`, the survivor count (dose: 100.0 mg/kg/injection, schedule: Q01DX009 (ip), vehicle: acetone) was 2 of 6, the survivor count [2] was 1 of 4 and the survivor count [3] was 0 of 4.

`O=C(OC/C=C/CC(Cl)(Cl)Cl)C(Cl)(Cl)Cl` was tested, and the survivor count (dose: 400.0 mg/kg/injection, schedule: Q01DX009 (ip), vehicle: acetone) was 1 of 6.

For `N/C(=N\OC(=O)Nc1cccc(Cl)c1)C(Cl)(Cl)Cl`, the survivor count (dose: 100.0 mg/kg/injection, schedule: Q01DX009 (ip), vehicle: Klucel (hydroxypropylcellulose) (HPC)) was 1 of 6, the survivor count (dose: 200.0 mg/kg/injection, schedule: Q01DX009 (ip), vehicle: Klucel (hydroxypropylcellulose) (HPC)) was 0 of 6 and the survivor count [6] was 0 of 6.

For `[O-][n+]1onc2ccccc21`, the survivor count (dose: 200.0 mg/kg/injection, schedule: Q01DX001 (ip), vehicle: saline with Tween-80) was 1 of 6 and the survivor count (dose: 400.0 mg/kg/injection, schedule: Q01DX001 (ip), vehicle: saline with Tween-80) was 0 of 6.

In the case of `CCN(CC)CCOc1ccc(C(C)(C)c2ccc(OCCN(CC)CC)cc2)cc1`, the survivor count (dose: 400.0 mg/kg/injection, schedule: Q04DX002 (ip), vehicle: saline) was 0 of 3.

In the case of `C=C(C)C(Br)=C(C)C`, the survivor count (dose: 200.0 mg/kg/injection, schedule: Q01DX001 (ip), vehicle: DMSO) was 3 of 6 and the survivor count (dose: 400.0 mg/kg/injection, schedule: Q01DX001 (ip), vehicle: DMSO) was 2 of 6.

For `O=[As](O)(CC(O)COc1ccc(Cl)cc1Cl)c1cccc(Cl)c1` (stereo unspecified), the survivor count (dose: 25.0 mg/kg/injection, schedule: Q04DX003 (ip), vehicle: saline with Tween-80) was 0 of 6, the survivor count (dose: 50.0 mg/kg/injection, schedule: Q04DX003 (ip), vehicle: saline with Tween-80) was 0 of 6 and the survivor count [7] was 0 of 6 (2×). For the same compound, the survivor count [4] was 0 of 6 and the survivor count [5] was 0 of 6.

With `CCOC(=O)Nc1cc(NC(c2ccccc2)c2ccccc2)c2[nH]cnc2n1` the T/C (dose: 20.0 mg/kg/injection, schedule: Q01DX009 (ip), vehicle: other) was 135 % of control [5 of 6 alive], the survivor count (dose: 30.0 mg/kg/injection, schedule: Q01DX009 (ip), vehicle: other) was 0 of 6 and the T/C (dose: 40.0 mg/kg/injection, schedule: Q01DX001 (ip), vehicle: other) was 148 % of control. For the same compound, the survivor count (dose: 45.0 mg/kg/injection, schedule: Q01DX009 (ip), vehicle: other) was 0 of 6, the survivor count (dose: 67.0 mg/kg/injection, schedule: Q01DX009 (ip), vehicle: other) was 0 of 6 and the survivor count (dose: 70.0 mg/kg/injection, schedule: Q01DX001 (ip), vehicle: other) was 2 of 6. The survivor count (dose: 80.0 mg/kg/injection, schedule: Q01DX001 (ip), vehicle: other) was 0 of 6, the T/C (dose: 80.0 mg/kg/injection, schedule: Q01DX001 (ip), vehicle: steroid suspending solution) was 132 % of control and the survivor count (dose: 200.0 mg/kg/injection, schedule: Q01DX001 (ip), vehicle: other) was 0 of 6. For the same compound, the survivor count (dose: 400.0 mg/kg/injection, schedule: Q01DX001 (ip), vehicle: other) was 0 of 6.

For `C=CCN(CC=C)C(=S)NC(=O)c1ccccc1`, the survivor count [6] was 3 of 6.

`CCCN(CCC)N=Nc1ccccc1C(N)=O` was tested, and the survivor count (dose: 400.0 mg/kg/injection, schedule: Q01DX009 (ip), vehicle: saline with Tween-80) was 0 of 6.

With `c1ccc2c(c1)ccc1cc3cc(NCCCCNc4ccc5nc6c(ccc7ccccc76)cc5c4)ccc3nc12` the survivor count (dose: 25.0 mg/kg/injection, schedule: Q01DX009 (ip), vehicle: saline with Tween-80) was 3 of 3, the survivor count [1] was 0 of 3 and the survivor count [8] was 0 of 3. The survivor count [9] was 0 of 3.

For `NC(N)=Nc1nc(N)nc(N)n1`, the survivor count [8] was 1 of 3 and the survivor count [9] was 0 of 3.

In the case of `C=C1C(=O)O[C@H]2C[C@@]3(C)[C@H](O)CCC(=C)[C@@H]3[C@@H](OC(C)=O)[C@H]12`, the survivor count (dose: 200.0 mg/kg/injection, schedule: Q04DX002 (ip), vehicle: saline with Tween-80) was 0 of 3 and the survivor count (dose: 400.0 mg/kg/injection, schedule: Q04DX002 (ip), vehicle: saline with Tween-80) was 0 of 3.

With `CCOCc1cc([N+](=O)[O-])cc([N+](=O)[O-])c1O` the T/C (dose: 12.5 mg/kg/injection, schedule: Q01DX009 (ip), vehicle: saline with Tween-80) was 125 % of control, the survivor count [7] was 4 of 6 and the survivor count [4] was 0 of 6. The survivor count [5] was 0 of 6.

With `Nc1ccccc1SC1CC(=O)N(c2cccc3ccccc23)C1=O` (stereo unspecified) the survivor count (dose: 200.0 mg/kg/injection, schedule: Q04DX003 (ip), vehicle: Klucel (hydroxypropylcellulose) (HPC)) was 5 of 6.

In the case of `COC(C)C1C([N+](C)(C)C)CS1(=O)=O` (stereo unspecified), the survivor count (dose: 300.0 mg/kg/injection, schedule: Q01DX001 (ip), vehicle: saline) was 3 of 6.

With `CCCP(=S)(C(C)C)C(C)C` the survivor count [4] was 1 of 6 and the survivor count [5] was 0 of 6.

`O=C(O)c1ccc(SSc2ccc(C(=O)O)cc2)cc1` was tested, and the T/C (dose: 100.0 mg/kg/injection, schedule: Q04DX002 (ip), vehicle: carboxymethylcellulose (CMC)) was 91, 95, 98, 100 % of control, the survivor count (dose: 200.0 mg/kg/injection, schedule: Q01DX009 (ip), vehicle: carboxymethylcellulose (CMC)) was 2 of 3 and the survivor count (dose: 200.0 mg/kg/injection, schedule: Q04DX002 (ip), vehicle: carboxymethylcellulose (CMC)) was 2 of 3. The survivor count [3] was 0 of 3, the survivor count (dose: 400.0 mg/kg/injection, schedule: Q01DX009 (ip), vehicle: carboxymethylcellulose (CMC)) was 0 of 3 and the survivor count (dose: 400.0 mg/kg/injection, schedule: Q04DX002 (ip), vehicle: carboxymethylcellulose (CMC)) was 0 of 3 and 0 of 6.

`Cc1cc([N+](=O)[O-])sc1[N+](=O)[O-]` was tested, and the survivor count (dose: 200.0 mg/kg/injection, schedule: Q04DX003 (ip), vehicle: saline) was 6 of 6 and the survivor count (dose: 400.0 mg/kg/injection, schedule: Q04DX003 (ip), vehicle: saline) was 0 of 6.

In the case of `COC(=O)C1=C(C(=O)OC)C2CC1C1OC21` (stereo unspecified), the survivor count (dose: 400.0 mg/kg/injection, schedule: Q01DX009 (ip), vehicle: saline) was 0 of 6.
